Results deposited as PubChem BioAssay AID1224828 (NIAID, 2016).
The deposit covers about 17,000 reagents; below is a random part of them. 762 of them (4.5%) count as active. 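Active calls include both raised and lowered p65 entry, mostly lowered; wells with fewer than 50 cells lack a z-score.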 Raw values vary from plate to plate and are shown uncorrected.

Screen: 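Regulators linking TLR4 signalling to p65 nuclear translocation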 (primary screen)
System: mouse RAW264.7 G9 macrophage reporter cells (GFP-p65, Tnf promoter-mCherry)
Knock-down reagent: siRNA pool against mouse genes, 100 nM
Timing: 2 days siRNA transfection, then 40 min LPS before fixation
Treatment: LPS (Salmonella minnesota R595) at 10 ng/ml
Detection: 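Imaged p65 nuclear translocation ratio, normalised to the plate median, converted to robust z-scores and averaged across two replicates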
Reading the numbers: p65 translocation robust z-score: higher = more nuclear NF-kappaB p65 after LPS than the plate median; nuclear/cytoplasmic p65 ratio: higher = more nuclear NF-kappaB p65
Call rule: 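Active if robust z is above 3.3 (negative regulators) or below -1.56, the Tlr4 control median (positive regulators); activity score 50 or more; control wells not called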
Meaning of the calls: active = hit (p65 shift raised or lowered); inactive = no clear change

no.	gene	p65 translocation robust z-score	nuclear/cytoplasmic p65 ratio, rep 1	nuclear/cytoplasmic p65 ratio, rep 2	low cell count flag	activity call
1	Etl4 (GeneID 208618)	-0.1	1.66	1.53	enough cells to score	inactive
2	Or5p62 (GeneID 258489)	-2.16	1.12	1.02	enough cells to score	active
3	Ociad1 (GeneID 68095)	0.58	1.73	1.55	enough cells to score	inactive
4	Pxk (GeneID 218699)	0.65	1.77	1.47	enough cells to score	inactive
5	A930012M17	0.7	1.44	1.66	enough cells to score	inactive
6	Ppp1r17 (GeneID 19051)	-0.54	1.58	1.32	enough cells to score	inactive
7	Pold2 (GeneID 18972)	-0.41	1.32	1.18	enough cells to score	inactive
8	Pcdhga3 (GeneID 93711)	0.92	1.61	1.31	enough cells to score	inactive
9	Drc11l (GeneID 231045)		1.18	0	fewer than 50 cells per well; well left out of scoring	inactive
10	Slc10a6 (GeneID 75750)	2.24	1.65	1.95	enough cells to score	inactive
11	Ctsw (GeneID 13041)	0.21	1.37	1.39	enough cells to score	inactive
12	Lmbr1l (GeneID 74775)	-0.34	1.47	1.31	enough cells to score	inactive
13	Smcr8 (GeneID 237782)	-0.27	1.39	1.26	enough cells to score	inactive
14	Rnf40 (GeneID 233900)		1.3	1.03	fewer than 50 cells per well; well left out of scoring	inactive
15	Dsc1 (GeneID 13505)	0.44	1.59	1.39	enough cells to score	inactive
16	1810009N02Rik (GeneID 69099)	0.23	1.33	1.54	enough cells to score	inactive
17	Elfn2 (GeneID 207393)		1.25	1.34	fewer than 50 cells per well; well left out of scoring	inactive
18	Or5b102 (GeneID 258687)	-1.04	1.43	1.3	enough cells to score	inactive
19	Srebf1 (GeneID 20787)	-0.36	1.48	1.54	enough cells to score	inactive
20	Srxn1 (GeneID 76650)	0.04	1.79	1.47	enough cells to score	inactive
21	Mr1 (GeneID 15064)	-0.39	1.74	1.51	enough cells to score	inactive
22	Adam1a (GeneID 280668)	0.98	1.74	1.85	enough cells to score	inactive
23	Asb12 (GeneID 70392)	1.4	1.91	1.61	enough cells to score	inactive
24	Mllt6 (GeneID 246198)	-0.65	1.28	1.33	enough cells to score	inactive
25	Ndrg2 (GeneID 29811)	0.83	1.51	1.48	enough cells to score	inactive
26	Or4n4 (GeneID 258659)	-0.61	1.42	1.65	enough cells to score	inactive
27	Hccs (GeneID 15159)	1.14	1.83	1.7	enough cells to score	inactive

Reformatted: entries from further up.
| gene | p65 translocation robust z-score | nuclear/cytoplasmic p65 ratio, rep 1 | nuclear/cytoplasmic p65 ratio, rep 2 | low cell count flag | activity call |
| --- | --- | --- | --- | --- | --- |
| Smcr8 (GeneID 237782) | -0.27 | 1.39 | 1.26 | enough cells to score | inactive |
| Rnf40 (GeneID 233900) | – | 1.3 | 1.03 | fewer than 50 cells per well; well left out of scoring | inactive |
| Dsc1 (GeneID 13505) | 0.44 | 1.59 | 1.39 | enough cells to score | inactive |
| 1810009N02Rik (GeneID 69099) | 0.23 | 1.33 | 1.54 | enough cells to score | inactive |
| Elfn2 (GeneID 207393) | – | 1.25 | 1.34 | fewer than 50 cells per well; well left out of scoring | inactive |
| Or5b102 (GeneID 258687) | -1.04 | 1.43 | 1.3 | enough cells to score | inactive |
| Srebf1 (GeneID 20787) | -0.36 | 1.48 | 1.54 | enough cells to score | inactive |
| Srxn1 (GeneID 76650) | 0.04 | 1.79 | 1.47 | enough cells to score | inactive |

The listing continues:
no.	gene	p65 translocation robust z-score	nuclear/cytoplasmic p65 ratio, rep 1	nuclear/cytoplasmic p65 ratio, rep 2	low cell count flag	activity call
28	Or7e173 (GeneID 258551)		1.4	1.17	fewer than 50 cells per well; well left out of scoring	inactive
29	Pigs (GeneID 276846)	-0.31	1.4	1.11	enough cells to score	inactive
30	Recql (GeneID 19691)	-0.15	1.52	1.47	enough cells to score	inactive
31	Serpinc1 (GeneID 11905)	0.34	1.57	1.63	enough cells to score	inactive
32	Foxd2 (GeneID 17301)	-1.68	1.25	1.12	enough cells to score	active
33	Mmp3 (GeneID 17392)	0.78	1.51	1.48	enough cells to score	inactive
34	Plch2 (GeneID 269615)		1.16	1.31	fewer than 50 cells per well; well left out of scoring	inactive
35	Rnase2a (GeneID 93726)		0.956	1.17	fewer than 50 cells per well; well left out of scoring	inactive
36	Ccdc127 (GeneID 67433)	-1.38	1.27	1.33	enough cells to score	inactive
37	Kctd6 (GeneID 71393)		1.34	1.23	fewer than 50 cells per well; well left out of scoring	inactive
38	Bmp1 (GeneID 12153)	2.16	1.96	1.92	enough cells to score	inactive
39	Gdap1 (GeneID 14545)	0.17	1.43	1.42	enough cells to score	inactive
40	Lime1 (GeneID 72699)	1.27	1.57	1.38	enough cells to score	inactive
41	Rps28 (GeneID 54127)	1.1	1.57	1.28	enough cells to score	inactive
42	Coch (GeneID 12810)	-0.15	1.46	1.36	enough cells to score	inactive
43	Tom1 (GeneID 21968)	-0.06	1.57	1.46	enough cells to score	inactive
44	Blzf1 (GeneID 66352)	0.75	1.86	1.6	enough cells to score	inactive
45	Elovl5 (GeneID 68801)	-0.33	1.42	1.32	enough cells to score	inactive
46	Pou6f2 (GeneID 218030)	0.35	1.67	1.79	enough cells to score	inactive
47	Lect2 (GeneID 16841)	1.53	1.79	1.62	enough cells to score	inactive
48	Sumo1 (GeneID 22218)	2.12	1.55	2.17	enough cells to score	inactive
49	Chgb (GeneID 12653)	-0.3	1.43	1.33	enough cells to score	inactive
50	Zbtb21 (GeneID 114565)		1.17	1.04	fewer than 50 cells per well; well left out of scoring	inactive
51	Tmbim6 (GeneID 110213)	-0.45	1.45	1.37	enough cells to score	inactive
52	Dcaf17 (GeneID 75763)	-0.38	1.27	1.21	enough cells to score	inactive
53	Ostm1 (GeneID 14628)		1.35	1.07	fewer than 50 cells per well; well left out of scoring	inactive
54	Igf2bp1 (GeneID 140486)	-0.33	1.31	1.41	enough cells to score	inactive
55	Arl3 (GeneID 56350)	0.01	1.56	1.53	enough cells to score	inactive
56	Hjurp (GeneID 381280)	-0.61	1.49	1.55	enough cells to score	inactive
57	LOC269472 (retired record) (GeneID 269472)	0.91	1.74	1.97	enough cells to score	inactive
58	Or52i2 (GeneID 258749)		1.13	1.05	fewer than 50 cells per well; well left out of scoring	inactive
59	Gal3st1 (GeneID 53897)	-0.99	1.17	1.37	enough cells to score	inactive
